# The other results are listed elsewhere or left out. These are raw signals, not scaled to a control.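 In the initial screen, polymyxin B was used at a concentration that permeabilizes Salmonella's outer membrane but not its inner membrane. Maximum growth was set by DMSO wells with or without polymyxin B. Since plates varied, data were ranked per plate, and compounds giving the lowest OD600 advanced as hits.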
# Tested on: Salmonella enterica serovar Typhimurium SL1344
# Test: bacterial growth OD600 after 18 h with compound and polymyxin B; higher = more bacterial growth (less inhibition)
# Settings: 50 µM, Mueller-Hinton broth
SMILES,bacterial growth OD600 (polymyxin B 1 µg/mL),bacterial growth OD600 (polymyxin B 0.75 µg/mL)
O=C(c1cc(C(F)(F)F)ccc1Cl)N1CC[C@@H](N2CCC(O)CC2)[C@H](O)C1,0.942,
COc1ccc(CC2(CO)CCN(Cc3cc(C)c(C)cc3C)CC2)cc1,0.837,
Cc1nonc1CN(C)C(=O)c1cc(NC(=O)CC2CCCC2)cc2nc(C3CCCO3)n(C)c12 (stereo not given),,0.862
COc1ccccc1CCN1CCCC(CN(C)C(=O)CCc2ccccn2)C1 (stereo not given),0.97,
C[C@@H]1CN(C(=O)c2nc3sccn3c2CN(C)Cc2ccc3ccccc3n2)C[C@H](C)O1,0.89,
CN(C)S(=O)(=O)NC1CC(=O)N(CCc2ccccc2)C1 (stereo not given),0.954,
CN(CC1CCCN(CCc2ccccc2F)C1)C(=O)C1CCCCC1 (stereo not given),0.882,
COc1ccccc1Oc1ncccc1CNC(=O)C(C)n1cncn1 (stereo not given),1.01,
CN(CCc1cnn(C)c1)Cc1nc(Cc2cccc(C(F)(F)F)c2)no1,0.85,
COCCC(=O)Nc1cc(C(=O)N2CCOc3ccccc3C2)cc2nc(-c3ccccc3)n(C)c12,,0.87
CCNCc1ccc(OC)c(OCC(O)CN(C)C(C)C)c1 (stereo not given),,0.844
COc1cc(CC2(CCC(=O)N3CCN(Cc4ccc(C)cc4)C(=O)C3)CCC(=O)N2)ccc1F (stereo not given),,0.811
CCOc1ccc([C@@H]2C[C@H]3CN(Cc4cccc(Cl)c4)C(=O)[C@]34CCCN24)cc1,,0.669
Cc1ccoc1C(=O)NC1CC(=O)N(C2CCCCCC2)C1 (stereo not given),0.917,
CCCc1cc(CNC(=O)c2ccc(NC)nc2)on1,0.94,
CC#CCN(Cc1ccco1)Cc1c[nH]nc1-c1ccc(OC)cc1F,0.977,
O=C(CCC1CCN(C(=O)c2ccoc2)CC1)N1CCC(Cc2ccccc2)CC1,1.05,
COc1cccc(CCNC(=O)c2ccc(OC3CCN(C(C)=O)CC3)c(OC)c2)c1,0.984,
CCN(CC)CCN(CC)C(=O)CCc1nnc(CCc2ccccc2OC)o1,1.08,
CCOC(=O)C1(Cc2cccc(OC)c2)CCCN(S(=O)(=O)Cc2ccccc2)C1 (stereo not given),0.555,

# Part of the list above, tab-delimited.
SMILES	bacterial growth OD600 (polymyxin B 1 µg/mL)	bacterial growth OD600 (polymyxin B 0.75 µg/mL)
COc1ccccc1CCN1CCCC(CN(C)C(=O)CCc2ccccn2)C1 (stereo not given)	0.97	
CN(C)S(=O)(=O)NC1CC(=O)N(CCc2ccccc2)C1 (stereo not given)	0.954	

# — the supplement of paper PMC12889115
